The subject of the assay is washed cells of P. putida MlO. The format is cell-based, Pseudomonas putida MlO. Particulars: P. putida MlO grown at the expense of heroin, HPLC.

For the compound `CN1CC[C@]23c4c5ccc(O)c4O[C@H]2[C@@H](O)C=C[C@H]3[C@H]1C5` [morphine], the “metabolism by washed cells grown on heroin” value was “readily metabolised”.

For the origin of these results see US5298414A (priority 1989, dated 1994).
